Consider 54 sequences from article PMC7819943, “Rice protein-binding microarrays: a tool to detect cis-acting elements near promoter regions in rice”.

This is one part of the list.

For the experiment, the target named is T1, OsSMF1 (Oryza sativa, UniProt Q6ZLB0 1-436).
T1 sequence: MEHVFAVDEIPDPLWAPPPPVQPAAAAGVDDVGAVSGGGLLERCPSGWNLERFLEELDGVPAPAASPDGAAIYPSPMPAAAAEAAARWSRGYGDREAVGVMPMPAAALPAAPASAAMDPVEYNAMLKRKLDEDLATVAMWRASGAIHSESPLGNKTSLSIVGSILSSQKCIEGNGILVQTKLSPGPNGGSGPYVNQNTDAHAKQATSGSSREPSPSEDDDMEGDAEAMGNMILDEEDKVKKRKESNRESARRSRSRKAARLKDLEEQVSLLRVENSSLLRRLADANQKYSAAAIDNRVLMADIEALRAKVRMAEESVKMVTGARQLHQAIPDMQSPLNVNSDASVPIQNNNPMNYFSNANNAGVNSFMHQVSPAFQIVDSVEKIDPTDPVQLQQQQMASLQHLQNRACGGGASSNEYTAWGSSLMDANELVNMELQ
Nature of the experiment: protein-binding microarray (RPBM); PBS, 2% BSA, 51.3 ng/ul salmon testes DNA, 50 uM zinc acetate, 200 nM TF, 25 C, 1 h; high values mean tight binding. The conditions noted are these: protein: recombinant; tags: N-terminal polyhistidine and DsRed monomer fusion (pET32a); chain copies: 2; label: CyDye5-dUTP incorporated in the synthesized complementary strand; 3' TTTTT single-stranded linker to array surface; dsDNA, one strand shown. Summed up:
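Per-feature fluorescence intensity (arbitrary units), read on an Axon 4000B scanner, is the binding signal. Transcription factors carrying an N-terminal polyhistidine tag and DsRed fusion were expressed in E. coli BL21-CodonPlus and purified on Ni–NTA. A custom Agilent array, made double-stranded by primer extension with Cy5-dUTP and blocked with 2% BSA, was incubated with 200 nM protein in PBS, 2% BSA, salmon testes DNA and 50 µM zinc acetate at 25 °C for 1 h and then washed.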
For “CGTCGGCGGCGGCGGAGGGGAGGACGACGTGGTCGACCTCCGGAGTCACCTAGTGCAG”, the binding signal was 3590 fluorescence intensity (a.u.).
Turning to “CGCGCAGATTTTCCCGGATGGGGCGTGTGCGGCTGCCACGCGGAGTCACCTAGTGCAG”, the binding signal is 4420 fluorescence intensity (a.u.).
Consider “TTACACCACATTATAAAATCATGACGCAATTAGGCTTAAACGGAGTCACCTAGTGCAG”, for which the binding signal was 4200 fluorescence intensity (a.u.).
Turning to “CTCCAACGAAATCTTCGCCGTGTCAACCCGCGCCTCCGATCGGAGTCACCTAGTGCAG”, the binding signal is 4730 fluorescence intensity (a.u.).
As for “ACACATCTAGTTTTACTACACACCAACCCACACGTATAGGCGGAGTCACCTAGTGCAG”, the binding signal is 3610 fluorescence intensity (a.u.).
With “CTCTCTCTCTTACCTCACGCGCTCCACGCACGCAGAGTCGCGGAGTCACCTAGTGCAG”, the binding signal is 5390 fluorescence intensity (a.u.).
Regarding “GTCTTTCTGTAGAGGACACCAACCATGTGTGATGTGTCCACGGAGTCACCTAGTGCAG”, the binding signal is 5470 fluorescence intensity (a.u.).
For “AGAAATACGTGTTATAGGTCAACTTAAATTTGTTATTCCCCGGAGTCACCTAGTGCAG”, the binding signal is 3330 fluorescence intensity (a.u.).
On to “TCCCGCCCATGGTCGATCTGCGTCATGTCGCTGTTGACCCCGGAGTCACCTAGTGCAG”, for which the binding signal was 6190 fluorescence intensity (a.u.).
With “CGCGTGCGGTCTCTCCCGCGCGACTGAACACGTGTCGCGCCGGAGTCACCTAGTGCAG”, the binding signal was 5850 fluorescence intensity (a.u.).
On to “CCCCTCCACCGCATCCACGCCGCGTCCCGCTTCGCCTCCTCGGAGTCACCTAGTGCAG”, for which the binding signal is 3230 fluorescence intensity (a.u.).
Take “ATGCTACACACGTCAGCCGTTTGGCACGACACTGGACGCCCGGAGTCACCTAGTGCAG”: the binding signal was 11900 fluorescence intensity (a.u.).
As to “TGAAAAGACTTTAAGTACCACGTCAATGTCACATAGGCTCCGGAGTCACCTAGTGCAG”, the binding signal is 7100 fluorescence intensity (a.u.).
On to “GGAGGAATCCGTCTCAAGCAACATAATTACCATCAAGTTGCGGAGTCACCTAGTGCAG”, for which the binding signal is 28800 fluorescence intensity (a.u.).
Regarding “TCGCAACCAAGAATCTCCAGTCACGCTAGCCTTTCTGCAACGGAGTCACCTAGTGCAG”, the binding signal is 4520 fluorescence intensity (a.u.).
With “TAGATGGGCTTTAATCCCGGCCCACGTACATGTGTAGGCCCGGAGTCACCTAGTGCAG”, the binding signal was 3350 fluorescence intensity (a.u.).
The result for “TGCACCATGTTTCATTGCGTGATGTACATAGCATAATTTTCGGAGTCACCTAGTGCAG” reads 6820 fluorescence intensity (a.u.).
On to “TGAAGTAGGATGGGCTATGACTTGGGCCCTCAAAGGTTATCGGAGTCACCTAGTGCAG”, for which the binding signal is 3400 fluorescence intensity (a.u.).
In the case of “TGCTATGCACATGCCACGTTAATGATGACAAAGTCAAAATCGGAGTCACCTAGTGCAG”, the binding signal is 5080 fluorescence intensity (a.u.).
For the sequence “AAAACCGTACCACAAGGGGAAAATGGGAGCGACAGATACCCGGAGTCACCTAGTGCAG”, the binding signal was 3540 fluorescence intensity (a.u.).
On to “CTAATTGTCTAGTGGCCATTGGAACGACATTGCCCTGCATCGGAGTCACCTAGTGCAG”, for which the binding signal is 4400 fluorescence intensity (a.u.).
For the sequence “ATAATATAAAACGGATGGATCACATGCTATGAACCTATGACGGAGTCACCTAGTGCAG”, the binding signal was 51200 fluorescence intensity (a.u.).
Take “TCTCCACTCTCCGATCCCCACGTATGGCGGCGGCGGCGGCCGGAGTCACCTAGTGCAG”: the binding signal was 3660 fluorescence intensity (a.u.).
The result for “TTCCTAGTGACCGTCCTCATCGCCTCGCGTGAGTCATCTTCGGAGTCACCTAGTGCAG” reads 27000 fluorescence intensity (a.u.); that for “CAAGATAGTTAACATGTAATATATCACTTCACAAACATGCCGGAGTCACCTAGTGCAG”, 28300 fluorescence intensity (a.u.).
Regarding “CAGACAGACACAGAGAGATCGATATCAACATGCTTTAGTCCGGAGTCACCTAGTGCAG”, the binding signal is 3710 fluorescence intensity (a.u.).
To “ACCGTGCAACCGTCAACCGGAGGAGATCCACGCGTTGGCACGGAGTCACCTAGTGCAG” belongs 4920 fluorescence intensity (a.u.); to “AAAGGCTGCACACCCTGACACCTCCACTCCTCCATTCCCCCGGAGTCACCTAGTGCAG”, 4040 fluorescence intensity (a.u.); to “AAATTTAAGAATTTTCGGATGCACTTAAAGAAGGACAAGTCGGAGTCACCTAGTGCAG”, 11000 fluorescence intensity (a.u.).
As for “TATGGAGGAGGCTGGCGAGCGGGACGCTGACGAGACGCACCGGAGTCACCTAGTGCAG”, the binding signal was 5340 fluorescence intensity (a.u.).
With “TGACAGGTTGATGTGATGGAAAAGGACTGAAGGTTGGATCCGGAGTCACCTAGTGCAG”, the binding signal is 42400 fluorescence intensity (a.u.).
For the sequence “TACCATGCACGCGGGAGCACCGTACCAAATGTGCCCACCACGGAGTCACCTAGTGCAG”, the binding signal was 23900 fluorescence intensity (a.u.).
As to “AAGCAAGCGTACTATAGTTCAGCTATAAATAGCAGATGACCGGAGTCACCTAGTGCAG”, the binding signal is 3250 fluorescence intensity (a.u.).
The result for “ATCCATCCTCCGGAGCAAACATGACACATTGACGATCTCCCGGAGTCACCTAGTGCAG” reads 5140 fluorescence intensity (a.u.); that for “CGACATTAAAGATTATGAATATTATGGGCAAATATAGGTCCGGAGTCACCTAGTGCAG”, 57600 fluorescence intensity (a.u.); that for “GCAGCGGCGGCTTGCTTCCGAAGCGAGCAATGCATGGCGCCGGAGTCACCTAGTGCAG”, 3380 fluorescence intensity (a.u.).
In the case of “CCTCTGAACTCTCTGGTAGCCATGGTGACAACATCAATCGCGGAGTCACCTAGTGCAG”, the binding signal was 3520 fluorescence intensity (a.u.).
For “ATGATGAGTAGGAGTTTGTGCAGGTGGACGGCGGTGGTGGCGGAGTCACCTAGTGCAG”, the binding signal was 3180 fluorescence intensity (a.u.).
Take “GCGGTGCAACGGTGGCTACAGCGTCCAGGTTGTCGTGATGCGGAGTCACCTAGTGCAG”: the binding signal is 4410 fluorescence intensity (a.u.).
Consider “ATATTTATAATTAGTGTCCAAACATCCGATGTGACAGGGACGGAGTCACCTAGTGCAG”, for which the binding signal was 4920 fluorescence intensity (a.u.).
“GCGTGAGTGCGGAAAACGAGGGGAGGGGTTGGGAACTTGACGGAGTCACCTAGTGCAG”: the binding signal is 3300 fluorescence intensity (a.u.).
In the case of “GCAGTCCCGGGTCACTGACCGTTTTGACCACCGGTGACCTCGGAGTCACCTAGTGCAG”, the binding signal was 4360 fluorescence intensity (a.u.).
For “ACAGTAACCCACATGTGCTAATGACGGATTAATTAGGCTTCGGAGTCACCTAGTGCAG”, the binding signal is 4110 fluorescence intensity (a.u.).
To “ACACGAGACCCCATCCGCACGTCACCCTCCACGTCATGGACGGAGTCACCTAGTGCAG” belongs 31600 fluorescence intensity (a.u.); to “GAAAGTGAAGCCTGTGGCGCACACGACACGACCTCCTCAACGGAGTCACCTAGTGCAG”, 3320 fluorescence intensity (a.u.).
With “CTGTCGCTTTAGCTCCTGAAACAAATGACACCACTGCTAGCGGAGTCACCTAGTGCAG”, the binding signal is 3180 fluorescence intensity (a.u.).
As for “ATCAGCTCGCCCTCCTTAGCGTGACATAGAGCTTTCCACTCGGAGTCACCTAGTGCAG”, the binding signal was 3170 fluorescence intensity (a.u.).
As for “TCCACTGACTCCGGGTGTTGGTTTGAATCATACGTAGACGCGGAGTCACCTAGTGCAG”, the binding signal is 4040 fluorescence intensity (a.u.).
Turning to “TTTCTGCTGTAGTTTACAATGACTAAGCTAATAACCTTTGCGGAGTCACCTAGTGCAG”, the binding signal was 3610 fluorescence intensity (a.u.).
The result for “GTCAGCGCCAACTTACTTGGCGCTGAGGTTGTGCACCTCACGGAGTCACCTAGTGCAG” reads 3160 fluorescence intensity (a.u.).
In the case of “ATTTCTTTAGATTTGATGACTATAGCACCTTCGTTCCATACGGAGTCACCTAGTGCAG”, the binding signal is 3610 fluorescence intensity (a.u.).
As for “TCCAGCCACGCCCGCGCTCCCTCCCACTTCCCCGCCATTACGGAGTCACCTAGTGCAG”, the binding signal was 3150 fluorescence intensity (a.u.).
The result for “AGGATGCAAACAGGTCAGAGTGATGTGTTACTTCCAAGGCCGGAGTCACCTAGTGCAG” reads 8160 fluorescence intensity (a.u.); that for “TGTCGCTTTCTCGTAGTCATGTTCGTGAATCATGGATGTGCGGAGTCACCTAGTGCAG”, 4590 fluorescence intensity (a.u.).
